Assay results reported in paper doi:10.1101/2023.10.06.561284.
These are yes or no findings as the source states them, for the method shown. In cells and extracts the contact can be indirect. Some binding calls cover weakened binding; strength is not graded here.

By UniProt entry, the sequences of proteins in these tests, tags left out.
UniProt Q80U70: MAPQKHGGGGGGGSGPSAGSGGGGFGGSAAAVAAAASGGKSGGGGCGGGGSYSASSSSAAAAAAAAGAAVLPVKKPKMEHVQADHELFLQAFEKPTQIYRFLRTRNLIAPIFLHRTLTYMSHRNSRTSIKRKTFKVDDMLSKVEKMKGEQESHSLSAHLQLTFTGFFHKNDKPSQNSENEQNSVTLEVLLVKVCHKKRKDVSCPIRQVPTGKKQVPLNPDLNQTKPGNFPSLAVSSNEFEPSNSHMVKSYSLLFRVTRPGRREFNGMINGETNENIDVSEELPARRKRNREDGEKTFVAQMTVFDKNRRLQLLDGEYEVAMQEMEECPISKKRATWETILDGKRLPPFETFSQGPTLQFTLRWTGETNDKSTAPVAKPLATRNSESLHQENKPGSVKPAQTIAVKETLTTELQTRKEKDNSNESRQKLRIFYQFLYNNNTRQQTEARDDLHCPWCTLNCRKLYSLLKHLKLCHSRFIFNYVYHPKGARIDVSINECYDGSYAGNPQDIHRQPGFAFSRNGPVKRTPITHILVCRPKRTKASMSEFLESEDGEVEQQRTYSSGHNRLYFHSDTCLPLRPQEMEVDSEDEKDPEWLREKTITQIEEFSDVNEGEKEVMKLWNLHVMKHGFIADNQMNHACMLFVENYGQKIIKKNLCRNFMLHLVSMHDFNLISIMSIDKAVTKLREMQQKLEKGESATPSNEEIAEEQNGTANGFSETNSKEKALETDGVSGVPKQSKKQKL
UniProt Q61188: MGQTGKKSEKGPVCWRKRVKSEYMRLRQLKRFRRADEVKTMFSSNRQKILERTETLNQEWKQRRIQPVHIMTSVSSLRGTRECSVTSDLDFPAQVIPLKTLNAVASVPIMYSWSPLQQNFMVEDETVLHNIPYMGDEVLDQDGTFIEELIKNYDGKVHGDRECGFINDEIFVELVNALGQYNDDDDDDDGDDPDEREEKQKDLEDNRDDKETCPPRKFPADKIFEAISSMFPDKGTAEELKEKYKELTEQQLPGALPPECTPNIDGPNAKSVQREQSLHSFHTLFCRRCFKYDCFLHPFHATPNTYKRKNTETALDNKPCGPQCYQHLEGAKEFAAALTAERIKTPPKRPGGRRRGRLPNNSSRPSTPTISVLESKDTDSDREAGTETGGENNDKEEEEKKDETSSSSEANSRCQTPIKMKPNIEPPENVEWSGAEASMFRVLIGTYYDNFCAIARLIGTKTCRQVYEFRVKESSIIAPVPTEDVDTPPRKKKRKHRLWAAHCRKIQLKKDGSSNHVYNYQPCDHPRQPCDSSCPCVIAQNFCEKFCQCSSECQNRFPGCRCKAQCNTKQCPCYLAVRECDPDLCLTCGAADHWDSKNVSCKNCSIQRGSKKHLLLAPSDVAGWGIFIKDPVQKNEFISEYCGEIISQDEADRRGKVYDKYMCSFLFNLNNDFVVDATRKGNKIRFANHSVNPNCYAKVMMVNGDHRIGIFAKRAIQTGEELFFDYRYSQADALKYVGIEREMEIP

Legend:
[1] = target: DNA methyltransferase 3B (mouse (endogenous in mouse blastocysts and PGK12.1 ES cells)) (UniProt O88509); assay: co-IP
[2] = target: DNA methyltransferase 3B (mouse (endogenous in mouse blastocysts and PGK12.1 ES cells)) (UniProt O88509); assay: proximity ligation

Row | binding [1] | binding [2] | Substance
1 | binds | binds | SUZ12 (from UniProt Q80U70 1-741)
2 | binds | binds | EZH2 (from UniProt Q61188 1-746) (enzyme)
3 | binds | binds | EED (from UniProt Q921E6 1-441)
